From publication PMC5636799 come the findings set out here.

Chains of the proteins cited; added tags and fusions are not shown.
UniProt P25963: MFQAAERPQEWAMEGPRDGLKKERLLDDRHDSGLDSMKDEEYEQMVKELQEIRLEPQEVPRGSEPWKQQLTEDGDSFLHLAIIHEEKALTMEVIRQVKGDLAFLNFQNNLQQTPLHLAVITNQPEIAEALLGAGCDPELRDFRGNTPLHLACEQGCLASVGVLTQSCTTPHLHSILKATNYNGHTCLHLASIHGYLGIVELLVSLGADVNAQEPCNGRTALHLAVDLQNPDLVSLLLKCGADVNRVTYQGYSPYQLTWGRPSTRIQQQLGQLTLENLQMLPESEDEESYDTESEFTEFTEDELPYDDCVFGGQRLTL

For this experiment, the target named is T1, IKKβ (human (endogenous in HUVECs)) (UniProt O14920).
T1 sequence: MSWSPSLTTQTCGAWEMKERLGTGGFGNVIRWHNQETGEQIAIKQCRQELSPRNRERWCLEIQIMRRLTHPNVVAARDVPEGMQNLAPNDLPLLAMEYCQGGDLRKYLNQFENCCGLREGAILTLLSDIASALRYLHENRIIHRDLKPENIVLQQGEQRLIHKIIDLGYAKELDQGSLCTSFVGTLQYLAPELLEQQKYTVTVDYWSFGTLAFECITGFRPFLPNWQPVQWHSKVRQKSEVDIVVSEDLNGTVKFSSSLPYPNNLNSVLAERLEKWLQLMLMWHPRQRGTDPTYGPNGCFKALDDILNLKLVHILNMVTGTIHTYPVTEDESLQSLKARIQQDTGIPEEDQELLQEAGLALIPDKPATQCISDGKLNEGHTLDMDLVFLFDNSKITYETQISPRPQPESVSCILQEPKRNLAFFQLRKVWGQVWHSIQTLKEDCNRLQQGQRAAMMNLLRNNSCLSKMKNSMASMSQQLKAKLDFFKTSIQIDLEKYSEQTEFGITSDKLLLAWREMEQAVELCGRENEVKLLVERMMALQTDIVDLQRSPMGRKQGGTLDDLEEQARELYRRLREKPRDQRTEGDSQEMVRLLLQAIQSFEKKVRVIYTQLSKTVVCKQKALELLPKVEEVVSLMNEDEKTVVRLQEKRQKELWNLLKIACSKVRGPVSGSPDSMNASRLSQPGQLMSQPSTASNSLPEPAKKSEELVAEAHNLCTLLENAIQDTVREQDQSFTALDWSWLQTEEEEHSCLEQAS
The experiment can be described thus: co-IP; HUVEC cell extract precipitated with anti-IKKβ antibody (2 μg, 2 h, 4 °C) and protein A/G plus-agarose overnight, washed thrice with ice-cold RIPA buffer, Western blot; cells treated with TNF-α (10 ng/mL) for 1 h. Background: Immunoblotting shows a protein as a band on a membrane.

No constants are given. Whether binding was seen depends on the method and setting. Binding seen in cells or lysates may run through a third protein. Some entries that bind do so weakly or less than the wild type.

On to IκBα (from UniProt P25963 1-317), for which the binding result was “binds”.
